PubChem BioAssay AID1487 (National Center for Advancing Translational Sciences (NCATS), 2009)
The other results are listed elsewhere or left out. Further columns of the screen follow, without active or inactive calls. Compounds called inactive in the main read-out are mostly missing here. The note in brackets gives the kind of curve behind each potency; many fits are weak.

Assay: qHTS Assay for Modulators of Lamin A Splicing
Conditions: HeLa LMNA splicing GFP/RFP minigene ratio, 48 h
Summary of the method: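 S3 HeLa stable clones carrying a lamin A-EGFP splicing minigene plus DsRed2 were seeded at 600 cells/well in Opti-MEM with 2% FBS, pin-dosed and incubated 48 h at 37°C. Acumen cytometry (488 nm) gave the GFP/RFP total-intensity ratio.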

[1] = measured here: RFP viability control channel
[2] = measured here: GFP splicing reporter channel

Structure (SMILES)	AC50 [1]	AC50 [2]
CNC(=O)[C@@H]1C[C@H]1[C@@H](NC(=O)OCc1ccccc1)c1ccccc1	35.5 µM [rising, single point]	
COc1cc(C(=O)NCc2nc3cccnc3n2Cc2ccc(C)cc2)cc(OC)c1OC	0.0316 µM [falling, full curve, poor fit]	
Oc1ccc(-c2nc3ccc4ccccc4c3c3c2CCC3)cc1O		11.2 µM [falling, partial curve, poor fit]
Cc1ccc(-n2nc(C)c(/C=N/NC(=O)c3cccnc3)c2Cl)cc1		0.0251 µM [rising, full curve, poor fit]
CCOC(=O)C1=C(c2ccccc2)NC(=O)NC1c1ccc(N(C)C)cc1 (configuration not stated)		14.1 µM [rising, single point]
N#Cc1c2c(c(-c3ccccc3Cl)[nH]c1=S)CCCC2		1.78 µM [falling, full curve, poor fit]
Cc1ccc(Nc2nc(N)nc(CSc3nc4ccccc4s3)n2)cc1	25.1 µM [falling, single point]	20 µM [falling, single point]
Cc1ccc2sc(N(CCCN(C)C)C(=O)c3ccc(Br)s3)nc2c1C	28.2 µM [falling, single point]	
Cc1nc(CNS(=O)(=O)c2ccc(Oc3ccccc3)cc2)cs1	2.82 µM [rising, full curve]	3.16 µM [rising, single point]
Cc1ccc(S(=O)(=O)N2CCC(=O)N(C(COC(=O)Nc3ccccc3)Cc3ccccc3)CC2)cc1 (configuration not stated)	6.31 µM [rising, full curve, poor fit]	
O=C(NCc1ccco1)c1csc2c1CCCC2	0.398 µM [rising, full curve, poor fit]	1.41 µM [rising, partial curve]
O=C(NCCN1CCN(C(=O)c2cccs2)CC1)C(=O)Nc1ccc(Br)cc1	28.2 µM [rising, single point]	31.6 µM [rising, single point]
Cc1ccc(CNC(=O)CO/N=C/c2ccc(C(C)(C)C)cc2)cc1	28.2 µM [rising, single point]	
COC(=O)c1ccc(OC)c(CSc2nnc(COc3ccccc3)o2)c1	11.2 µM [rising, single point]	
COC1=C(Nc2ccccc2)C(=O)c2ccccc2C1=O	20 µM [rising, single point]	22.4 µM [rising, single point]
Cc1ccccc1Nc1nn2c(=O)c3ccc(C(=O)NCc4cccs4)cc3nc2s1	0.251 µM [rising, partial curve]	0.2 µM [rising, full curve]
Cc1ccc(S(=O)(=O)N2CCCC(C(=O)NCCc3ccc4c(c3)OCO4)C2)cc1 (configuration not stated)	12.6 µM [rising, partial curve]	7.94 µM [rising, partial curve]
CS(=O)(=O)N(CCc1ccccc1)CC(=O)N1CCN(c2ccc(F)cc2)CC1	25.1 µM [rising, single point]	17.8 µM [rising, single point]
Cc1cc(C)cc(NC(=O)CSc2ccc(-c3cccs3)nn2)c1	15.8 µM [rising, single point]	
CCOC(=O)c1ccc2ncc(C(=O)OCC)c(Nc3ccc(N4CCOCC4)cc3)c2c1		7.94 µM [falling, partial curve, poor fit]
O=[N+]([O-])c1ccccc1NCCNS(=O)(=O)c1ccc(Cl)cc1	14.1 µM [rising, single point]	
Cc1ccc(-c2cc(-c3ccccc3)c(C#N)c(N)n2)o1	0.708 µM [rising, full curve, poor fit]	
COc1ccc(OCC(O)Cn2c(=N)n(CCN3CCCCC3)c3ccccc32)cc1 (configuration not stated)	35.5 µM [rising, single point]	
COc1ccc(CCNc2ncnc3c2cnn3-c2ccc(C)c(Cl)c2)cc1	8.91 µM [rising, partial curve]	
CCc1cc(C(=O)COc2ccccc2F)c(O)cc1O	35.5 µM [rising, single point]	28.2 µM [rising, single point]
Cc1ccc(N(CCC#N)C(=O)CCl)cc1C	1.26 µM [falling, partial curve]	35.5 µM [falling, single point]
Cn1c(SCC(=O)Nc2nc(C(C)(C)C)cs2)nnc1C1CC1	11.2 µM [falling, partial curve, poor fit]	

Structure (SMILES)	AC50 [1]	AC50 [2]
O=c1cc(N2CCC3(CC2)OCCO3)[nH]c(=O)n1C1CCCCC1	1.41 µM [rising, full curve, poor fit]	1.12 µM [rising, full curve, poor fit]
COc1ccc(-c2nn(-c3ccccc3F)cc2CNCCn2nc(C)cc2C)cc1	0.01 µM [falling, full curve, poor fit]	0.01 µM [falling, full curve, poor fit]
Cc1ccc(N2CCN(C(=O)c3cccn4c(=O)c5ccc(Cl)cc5nc34)CC2C)cc1 (configuration not stated)	0.891 µM [falling, full curve, poor fit]	0.316 µM [falling, full curve, poor fit]
CCOc1cc2nc3c4ccccc4n(C)c3nc2cc1OCC	0.891 µM [falling, full curve, poor fit]	0.891 µM [falling, full curve, poor fit]
Cc1cc(C)c(C)c(S(=O)(=O)NCC(=O)NCc2ccco2)c1C		35.5 µM [rising, single point]
CCCn1c(=O)c(C(=O)NCc2ccco2)c(O)c2ccccc21		5.62 µM [falling, single point]
COc1ccc(CNc2ccc(C)c(C)c2)cc1	12.6 µM [rising, partial curve, poor fit]	7.08 µM [rising, partial curve, poor fit]
FC(F)(F)c1cnc(N2CCCN(C(=S)Nc3ccccc3)CC2)c(Cl)c1	2.24 µM [falling, partial curve, poor fit]	2 µM [falling, partial curve, poor fit]
Cc1cc(Cl)ccc1C(=O)C1CCCN(C(=O)c2ccc3ncccc3c2)C1 (configuration not stated)	4.47 µM [falling, full curve]	7.94 µM [falling, partial curve, poor fit]
CCCCc1ccc(NS(=O)(=O)c2cc3c4c(c2)CC(=O)N4CCC3)cc1	28.2 µM [rising, single point]	17.8 µM [rising, partial curve]
Cc1ccc(S(=O)(=O)N(C)c2ccc(C(=O)Nc3c(C)n(C)n(-c4ccccc4)c3=O)cc2)cc1	0.0891 µM [falling, full curve]	0.141 µM [falling, full curve, poor fit]
C/C(=N\NC(=O)c1cc(-c2cccs2)nc2ccccc12)c1ccccn1		0.891 µM [falling, partial curve, poor fit]
COc1ccc(NC(=O)c2c(F)cccc2F)cc1S(=O)(=O)Nc1ccc(Br)cc1	28.2 µM [rising, single point]	
CCOc1cc(/C=C/c2ccc3cccc([N+](=O)[O-])c3n2)ccc1OCC(=O)N(C)C	10 µM [rising, partial curve]	
CS(=O)(=O)c1ncc(Cl)c(C(=O)Nc2ccc3ccccc3c2)n1	5.62 µM [falling, full curve, poor fit]	10 µM [falling, partial curve, poor fit]
CC(C)C(c1nnnn1C1CCCC1)N1c2ccccc2CC1C (configuration not stated)	35.5 µM [rising, single point]	
CCOc1ccc(NC(=O)c2cc3c(C)nc4ccccc4c3o2)cc1	10 µM [rising, partial curve, poor fit]	
COc1ccc(Cl)cc1NC(=O)COC(=O)c1cc(NS(=O)(=O)c2cccs2)ccc1O	7.94 µM [rising, partial curve]	11.2 µM [rising, single point]
COc1ccc(Cc2nnc(SCc3ccc([N+](=O)[O-])cc3)o2)cc1	15.8 µM [rising, partial curve, poor fit]	
O=S(=O)(c1ccccc1)N1c2cc(Cl)ccc2Oc2nc3ccccc3nc21	11.2 µM [rising, partial curve]	6.31 µM [rising, partial curve]
COc1cc(/C=C/C(=O)C2C(=O)C=C(C)OC2=O)cc(OC)c1O (configuration not stated)	35.5 µM [rising, single point]	
Cn1c(=O)c2c(n3cnnc13)-c1ccccc1CC21CCCC1	1.41 µM [rising, full curve]	
Cc1c(C(=O)NCc2ccc3c(c2)OCO3)oc2ccc(S(=O)(=O)N3CCC(C)CC3)cc12	14.1 µM [rising, single point]	
COc1ccccc1OCCC(=O)O	0.0282 µM [falling, full curve, poor fit]	
CCCC(C)C(=O)Nc1ccc(S(=O)(=O)Nc2nccc(C)n2)cc1 (configuration not stated)	2.24 µM [rising, partial curve, poor fit]	0.178 µM [rising, full curve, poor fit]
N#CCc1ccc(NS(=O)(=O)c2ccc(N3CCCC3=O)cc2)cc1	31.6 µM [rising, single point]	20 µM [rising, single point]

Grouped by structure, those above containing bromine
Structure (SMILES)	AC50 [1]	AC50 [2]
Cc1ccc2sc(N(CCCN(C)C)C(=O)c3ccc(Br)s3)nc2c1C	28.2 µM [falling, single point]	
O=C(NCCN1CCN(C(=O)c2cccs2)CC1)C(=O)Nc1ccc(Br)cc1	28.2 µM [rising, single point]	31.6 µM [rising, single point]
COc1ccc(NC(=O)c2c(F)cccc2F)cc1S(=O)(=O)Nc1ccc(Br)cc1	28.2 µM [rising, single point]	
